PMC8904154
Like-named read-outs stand apart in the source and are kept apart here. These are yes or no findings as the source states them, for the method shown. In cells and extracts the contact can be indirect. Some results given as binding are weak or reduced against the parent protein; the word gives no strength.

Protein sequences, listed by entry. Tags and fused reporters are not part of them.
UniProt P61586: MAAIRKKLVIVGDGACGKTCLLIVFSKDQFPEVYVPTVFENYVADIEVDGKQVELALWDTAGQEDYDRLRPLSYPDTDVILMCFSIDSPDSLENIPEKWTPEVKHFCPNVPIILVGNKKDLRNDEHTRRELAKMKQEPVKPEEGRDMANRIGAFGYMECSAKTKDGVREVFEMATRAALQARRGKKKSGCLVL

T1: Alpha-1-Syntrophin (human (endogenous in MDA-MB-231)) (UniProt Q13424)
T1 sequence: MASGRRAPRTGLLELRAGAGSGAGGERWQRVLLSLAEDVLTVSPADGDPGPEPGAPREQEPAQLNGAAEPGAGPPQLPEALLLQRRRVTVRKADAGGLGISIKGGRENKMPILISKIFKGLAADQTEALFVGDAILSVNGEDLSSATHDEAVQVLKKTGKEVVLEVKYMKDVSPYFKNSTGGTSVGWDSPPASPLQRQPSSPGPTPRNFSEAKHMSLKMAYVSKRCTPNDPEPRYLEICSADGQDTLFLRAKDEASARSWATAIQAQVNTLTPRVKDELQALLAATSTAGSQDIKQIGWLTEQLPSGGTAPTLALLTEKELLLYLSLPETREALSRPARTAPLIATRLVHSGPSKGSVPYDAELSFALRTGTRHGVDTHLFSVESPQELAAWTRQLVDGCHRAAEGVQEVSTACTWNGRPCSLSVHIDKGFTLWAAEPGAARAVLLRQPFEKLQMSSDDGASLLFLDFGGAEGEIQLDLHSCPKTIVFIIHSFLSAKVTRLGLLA

T2: p66Shc (human (endogenous in MDA-MB-231)) (UniProt P29353)
T2 sequence: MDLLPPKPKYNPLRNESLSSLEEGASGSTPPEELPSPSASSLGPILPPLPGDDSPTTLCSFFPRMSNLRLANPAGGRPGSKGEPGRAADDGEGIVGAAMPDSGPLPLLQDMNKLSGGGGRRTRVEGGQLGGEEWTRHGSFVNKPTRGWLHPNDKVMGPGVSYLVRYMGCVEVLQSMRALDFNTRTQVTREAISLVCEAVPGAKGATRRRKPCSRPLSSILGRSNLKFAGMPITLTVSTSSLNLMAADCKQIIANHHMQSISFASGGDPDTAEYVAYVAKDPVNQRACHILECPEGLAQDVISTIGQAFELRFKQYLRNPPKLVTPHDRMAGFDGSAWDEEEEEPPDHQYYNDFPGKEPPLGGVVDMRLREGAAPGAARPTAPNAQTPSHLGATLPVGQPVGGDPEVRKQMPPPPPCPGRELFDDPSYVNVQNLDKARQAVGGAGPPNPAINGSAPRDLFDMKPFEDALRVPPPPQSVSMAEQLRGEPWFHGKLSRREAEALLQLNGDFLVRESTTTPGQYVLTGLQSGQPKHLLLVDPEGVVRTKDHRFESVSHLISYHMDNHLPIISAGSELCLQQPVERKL


Key:
Test in all cases: co-IP; endogenous proteins from MDA-MB-231 lysate (NP-40 lysis buffer: 1% NP-40, 150 mM NaCl, 2 mM EDTA, 20 mM Tris-Cl, 10% glycerol) on antibody/protein G-agarose immunobeads, overnight at 4°C, washed with 1X PBS, Western blot; cells untreated or pretreated with DMSO or cytochalasin D (0.5, 2, 4, 6 µM) for 6 h; IgG as control IP
[1] = biological target: T1, Alpha-1-Syntrophin (human (endogenous in MDA-MB-231))
[2] = biological target: T2, p66Shc (human (endogenous in MDA-MB-231))
[3] = biological target: T1, Alpha-1-Syntrophin (human (endogenous in MDA-MB-231)); remark: listed apart in the source
[4] = biological target: RhoA GTPase (human (endogenous in MDA-MB-231)) (UniProt P61586)
[5] = biological target: T2, p66Shc (human (endogenous in MDA-MB-231)); remark: listed apart in the source

Row | binding [1] | binding [2] | binding [3] | binding [4] | binding [5] | Molecule
1 | binds | binds | – | – | – | RhoA GTPase (from UniProt P61586 1-193)
2 | – | – | binds | binds | – | p66Shc (protein, UniProt P29353-1 1-583) MDLLPPKPKYNPLRNESLSSLEEGASGSTPPEELPSPSASSLGPILPPLPGDDSPTTLCSFFPRMSNLRLANPAGGRPGSKGEPGRAADDGEGIVGAAMPDSGPLPLLQDMNKLSGGGGRRTRVEGGQLGGEEWTRHGSFVNKPTRGWLHPNDKVMGPGVSYLVRYMGCVEVLQSMRALDFNTRTQVTREAISLVCEAVPGAKGATRRRKPCSRPLSSILGRSNLKFAGMPITLTVSTSSLNLMAADCKQIIANHHMQSISFASGGDPDTAEYVAYVAKDPVNQRACHILECPEGLAQDVISTIGQAFELRFKQYLRNPPKLVTPHDRMAGFDGSAWDEEEEEPPDHQYYNDFPGKEPPLGGVVDMRLREGAAPGAARPTAPNAQTPSHLGATLPVGQPVGGDPEVRKQMPPPPPCPGRELFDDPSYVNVQNLDKARQAVGGAGPPNPAINGSAPRDLFDMKPFEDALRVPPPPQSVSMAEQLRGEPWFHGKLSRREAEALLQLNGDFLVRESTTTPGQYVLTGLQSGQPKHLLLVDPEGVVRTKDHRFESVSHLISYHMDNHLPIISAGSELCLQQPVERKL
3 | – | – | – | binds | binds | Alpha-1-Syntrophin (protein, UniProt Q13424 1-505) MASGRRAPRTGLLELRAGAGSGAGGERWQRVLLSLAEDVLTVSPADGDPGPEPGAPREQEPAQLNGAAEPGAGPPQLPEALLLQRRRVTVRKADAGGLGISIKGGRENKMPILISKIFKGLAADQTEALFVGDAILSVNGEDLSSATHDEAVQVLKKTGKEVVLEVKYMKDVSPYFKNSTGGTSVGWDSPPASPLQRQPSSPGPTPRNFSEAKHMSLKMAYVSKRCTPNDPEPRYLEICSADGQDTLFLRAKDEASARSWATAIQAQVNTLTPRVKDELQALLAATSTAGSQDIKQIGWLTEQLPSGGTAPTLALLTEKELLLYLSLPETREALSRPARTAPLIATRLVHSGPSKGSVPYDAELSFALRTGTRHGVDTHLFSVESPQELAAWTRQLVDGCHRAAEGVQEVSTACTWNGRPCSLSVHIDKGFTLWAAEPGAARAVLLRQPFEKLQMSSDDGASLLFLDFGGAEGEIQLDLHSCPKTIVFIIHSFLSAKVTRLGLLA
